Test results taken from article PMC11589570, “Critical assessment of LC3/GABARAP ligands used for degrader development and ligandability of LC3/GABARAP binding pockets” (Nature Communications, 2024).
Where “and” joins values, the source holds several entries; their conditions need not be identical. Equal values may be shown once. Further values from the same series stand in other lists.

System: U2OS cells
Assay: Cell growth assay (IncuCyte confluence over 72 h)
Assay type: cell-based
Set-up: key: % of well area covered by cells (confluence)
Conditions: listed as KT1
Procedure, shortened: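 U2OS cells were grown in DMEM with 10% FBS for 24 h before treatment. Confluence was then tracked by IncuCyte phase imaging over 72 h and expressed as % of well area covered by cells. Each point is the average of three wells.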

Which results are given for `Cc1ccc(C)c(S(=O)(=O)Nc2cc(SCC(=O)O)c(O)c3ccccc23)c1` [compound 8]?
U2OS cell growth (100 nM, time 10 h): 31.5931 and 32.9555 and 37.7058; U2OS cell growth (100 nM, time 12 h): 26.9508 and 28.1158 and 29.7395; U2OS cell growth (100 nM, time 14 h): 26.4964 and 29.601 and 48.1091; U2OS cell growth (100 nM, time 18 h): 42.328 and 38.9711 and 54.3004; U2OS cell growth (100 nM, time 20 h): 35.5557 and 29.0344 and 42.8704; U2OS cell growth (100 nM, time 22 h): 37.3905 and 39.4392 and 43.2741; U2OS cell growth (100 nM, time 24 h): 49.3463 and 49.8246 and 78.7066; U2OS cell growth (100 nM, time 26 h): 34.0436 and 38.6927 and 43.7241; U2OS cell growth (100 nM, time 28 h): 36.8529 and 43.4901 and 66.3645; U2OS cell growth (100 nM, time 30 h): 29.3708 and 38.3295 and 35.6751; U2OS cell growth (100 nM, time 32 h): 40.419 and 35.9753 and 49.3313; U2OS cell growth (100 nM, time 34 h): 54.5574 and 57.2358 and 66.159; U2OS cell growth (100 nM, time 36 h): 53.407 and 53.3742 and 57.8264; U2OS cell growth (100 nM, time 38 h): 67.7197 and 49.4083 and 58.7768; U2OS cell growth (100 nM, time 40 h): 48.7069 and 57.3461 and 72.4337; U2OS cell growth (100 nM, time 42 h): 62.1849 and 63.0149 and 74.6942; U2OS cell growth (100 nM, time 44 h): 60.4797 and 65.2196 and 66.3725; U2OS cell growth (100 nM, time 46 h): 60.2129 and 61.9163 and 66.7853; U2OS cell growth (100 nM, time 48 h): 59.2222 and 63.4975 and 74.4608; U2OS cell growth (100 nM, time 50 h): 78.0116 and 79.7739 and 84.4744; U2OS cell growth (100 nM, time 52 h): 75.0931 and 79.693 and 78.4583; U2OS cell growth (100 nM, time 54 h): 86.209 and 91.8945 and 91.2675; U2OS cell growth (100 nM, time 56 h): 73.7258 and 83.2836 and 86.8462; U2OS cell growth (100 nM, time 60 h): 77.9364 and 85.0442 and 89.7625; U2OS cell growth (100 nM, time 62 h): 77.8397 and 84.6221 and 95.3063; U2OS cell growth (100 nM, time 64 h): 88.1953 and 92.1987 and 97.3616; U2OS cell growth (100 nM, time 66 h): 83.6038 and 87.261 and 88.02; U2OS cell growth (100 nM, time 68 h): 85.2104 and 86.3513 and 89.3641; U2OS cell growth (100 nM, time 70 h): 93.7309 and 93.4137 and 96.6674; U2OS cell growth (100 nM, time 72 h): 94.4479 and 95.5701 and 96.9216; U2OS cell growth (500 nM, time 10 h): 28.4962 and 26.957 and 38.9718; U2OS cell growth (500 nM, time 12 h): 30.4808 and 36.8352 and 30.4708; U2OS cell growth (500 nM, time 14 h): 33.407 and 30.8821 and 40.3772; U2OS cell growth (500 nM, time 16 h): 27.4163 and 27.2976 and 48.5558; U2OS cell growth (500 nM, time 18 h): 37.2867 and 37.8143 and 41.6502; U2OS cell growth (500 nM, time 20 h): 29.1636 and 33.7176 and 36.6854; U2OS cell growth (500 nM, time 22 h): 36.8381 and 35.9409 and 41.3032; U2OS cell growth (500 nM, time 24 h): 52.3879 and 57.7945 and 59.3594; U2OS cell growth (500 nM, time 26 h): 46.5212 and 38.999 and 45.0769; U2OS cell growth (500 nM, time 28 h): 43.0232 and 43.7697 and 48.1427; U2OS cell growth (500 nM, time 30 h): 45.8392 and 43.4464 and 54.8064; U2OS cell growth (500 nM, time 32 h): 49.1408 and 45.6295 and 46.7112; U2OS cell growth (500 nM, time 34 h): 58.5367 and 56.8355 and 62.0469; U2OS cell growth (500 nM, time 36 h): 59.2451 and 42.1843 and 57.1739; U2OS cell growth (500 nM, time 38 h): 57.4335 and 49.4542 and 59.1026; U2OS cell growth (500 nM, time 40 h): 76.7002 and 52.8257 and 54.0973; U2OS cell growth (500 nM, time 42 h): 60.2047 and 61.5836 and 63.6306; U2OS cell growth (500 nM, time 44 h): 82.3521 and 59.6693 and 67.7339; U2OS cell growth (500 nM, time 46 h): 69.353 and 60.7941 and 67.9507; U2OS cell growth (500 nM, time 48 h): 73.1294 and 57.9166 and 67.0995; U2OS cell growth (500 nM, time 50 h): 83.5301 and 70.5108 and 83.6801; U2OS cell growth (500 nM, time 52 h): 73.2069 and 70.6896 and 78.3429; U2OS cell growth (500 nM, time 54 h): 95.0981 and 85.7145 and 89.5598; U2OS cell growth (500 nM, time 56 h): 87.6208 and 85.6523 and 84.5499; U2OS cell growth (500 nM, time 58 h): 82.305 and 77.6129; U2OS cell growth (500 nM, time 60 h): 95.4886 and 86.1951 and 89.381; U2OS cell growth (500 nM, time 62 h): 97.5509 and 90.1603 and 87.1942; U2OS cell growth (500 nM, time 64 h): 94.8805 and 89.2154 and 93.8653; U2OS cell growth (500 nM, time 66 h): 95.1037 and 85.1433 and 92.6081; U2OS cell growth (500 nM, time 68 h): 96.8788 and 89.8779 and 94.3714; U2OS cell growth (500 nM, time 70 h): 97.3087 and 94.6633 and 92.3599; U2OS cell growth (500 nM, time 72 h): 96.4304 and 92.0092 and 95.1657; U2OS cell growth (1 uM, time 10 h): 30.7878 and 21.8524; U2OS cell growth (1 uM, time 12 h): 32.6568 and 35.5896 and 27.3431; U2OS cell growth (1 uM, time 14 h): 36.1298 and 31.3296 and 28.0135; U2OS cell growth (1 uM, time 16 h): 29.9939 and 32.2018 and 27.3132; U2OS cell growth (1 uM, time 18 h): 31.6247 and 44.4237 and 28.196; U2OS cell growth (1 uM, time 20 h): 30.8219 and 33.3943 and 27.7551; U2OS cell growth (1 uM, time 22 h): 32.4562 and 32.7161 and 26.527; U2OS cell growth (1 uM, time 24 h): 52.4047 and 53.4695 and 41.5137; U2OS cell growth (1 uM, time 26 h): 41.9077 and 44.3364 and 37.0535; U2OS cell growth (1 uM, time 28 h): 41.5284 and 47.8561 and 35.6154; U2OS cell growth (1 uM, time 30 h): 44.2919 and 41.4619 and 39.92; U2OS cell growth (1 uM, time 32 h): 38.4768 and 39.8918 and 30.4696; U2OS cell growth (1 uM, time 34 h): 52.3604 and 53.567 and 46.299; U2OS cell growth (1 uM, time 36 h): 41.3591 and 50.0279 and 43.6836; U2OS cell growth (1 uM, time 38 h): 46.0761 and 54.3725 and 45.166; U2OS cell growth (1 uM, time 40 h): 48.2768 and 60.4319 and 38.2819; U2OS cell growth (1 uM, time 42 h): 62.575 and 63.236 and 58.7517; U2OS cell growth (1 uM, time 44 h): 57.6562 and 62.0966 and 51.4455; U2OS cell growth (1 uM, time 46 h): 70.7802 and 58.8381 and 56.8545; U2OS cell growth (1 uM, time 48 h): 58.9669 and 58.1065 and 55.8487; U2OS cell growth (1 uM, time 50 h): 63.6319 and 71.2329 and 62.1028; U2OS cell growth (1 uM, time 52 h): 70.1841 and 80.67 and 64.5429; U2OS cell growth (1 uM, time 54 h): 81.8222 and 85.9637 and 71.6847; U2OS cell growth (1 uM, time 56 h): 89.4356 and 92.1968 and 84.8875; U2OS cell growth (1 uM, time 58 h): 76.3009 and 85.3672 and 76.6991; U2OS cell growth (1 uM, time 60 h): 88.1065 and 92.0789 and 89.6687; U2OS cell growth (1 uM, time 62 h): 88.1372 and 90.3744 and 82.0129; U2OS cell growth (1 uM, time 64 h): 84.8463 and 96.8412 and 86.0509; U2OS cell growth (1 uM, time 66 h): 82.1046 and 88.8888 and 79.023; U2OS cell growth (1 uM, time 68 h): 86.6836 and 93.3764 and 90.7052; U2OS cell growth (1 uM, time 70 h): 93.567 and 88.0961 and 92.0556
